The values that follow come from the supplement of paper PMC12067093, “Discovery and optimisation of a covalent ligand for TRIM25 and its application to targeted protein ubiquitination” (Chemical Science, 2025).

In assay [1] the target is CLIC1_O00299_191_LHIVQVVCK (UniProt O00299). Put plainly: probe-labelled cysteine peptide fold change vs DMSO (competition) (log2 fold change); higher = less target engagement (more negative = stronger competition). The note with it: THP-1, incubation time: 4 h.
The target of assay [2] is CLIC1_O00299_191_LHIVQVVCKK (UniProt O00299). Described as above. The note with it: THP-1, incubation time: 4 h.

Some of the results follow.
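Note: competitive chemoproteomic profiling in live THP-1 cells with an iodoacetamide desthiobiotin (IA-DTB) probe, comparing probe-labelled peptide intensities in compound-treated cells against DMSO-treated controls.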

As to `CC1Cc2ccccc2N1C(=O)C1CCCN(C(=O)CCl)C1` (mixture of isomers) [TRIM25 ligand 11 (diastereomer mixture)], the “probe-labelled cysteine peptide fold change” value is -0.0185 in assay [1] (10 µM), -0.0382 in assay [1] (50 µM), -0.428 in assay [2] (10 µM) and -0.575 in assay [2] (50 µM).
